The target in experiment [1] is PKCγ over-expressed in HEK293T cells (plasmid Addgene 112266). Kind of experiment: co-IP with anti-TRPM2, probed with anti-PKCγ, HEK293.
For experiment [2] the target is unchanged. Kind of experiment: co-IP (figure legend of FIGS. 4A-4R).

Results are given in words; binding and its absence hold for the method and conditions named. In cells and extracts the contact can be indirect. Binding can be weak; no strength is given. Tags and fused reporters may be left off the sequences shown.

For one molecule, binding results are on record in patent US20250235501A1, “Methods and Compositions for Treating or Preventing Neurological Injury or Neurological Disorders” (University of Connecticut, priority 2024, published 2025).

B1: Flag-TRPM2-NT, N-terminal fragment of TRPM2 (1-727) (protein, not shown: small tags and cut ends)
chain: MEPSALRKAGSEQEEGFEGLPRRVTDLGMVSNLRRSNSSLFKSWRLQCPFGNNDKQESLSSWIPENIKKKECVYFVESSKLSDAGKVVCQCGYTHEQHLEEATKPHTFQGTQWDPKKHVQEMPTDAFGDIVFTGLSQKVKKYVRVSQDTPSSVIYHLMTQHWGLDVPNLLISVTGGAKNFNMKPRLKSIFRRGLVKVAQTTGAWIITGGSHTGVMKQVGEAVRDFSLSSSYKEGELITIGVATWGTVHRREGLIHPTGSFPAEYILDEDGQGNLTCLDSNHSHFILVDDGTHGQYGVEIPLRTRLEKFISEQTKERGGVAIKIPIVCVVLEGGPGTLHTIDNATTNGTPCVVVEGSGRVADVIAQVANLPVSDITISLIQQKLSVFFQEMFETFTESRIVEWTKKIQDIVRRRQLLTVFREGKDGQQDVDVAILQALLKASRSQDHFGHENWDHQLKLAVAWNRVDIARSEIFMDEWQWKPSDLHPTMTAALISNKPEFVKLFLENGVQLKEFVTWDTLLYLYENLDPSCLFHSKLQKVLVEDPERPACAPAAPRLQMHHVAQVLRELLGDFTQPLYPRPRHNDRLRLLLPVPHVKLNVQGVSLRSLYKRSSGHVTFTMDPIRDLLIWAIVQNRRELAGIIWAQSQDCIAAALACSKILKELSKEEEDTDSSEEMLALAEEYEHRAIGVFTECYRKDEERAQKLLTRVSEAWGKTTCLQLALEAKDM
As for B1, the binding entry in experiment [1] and in experiment [2] was “binds” in each case.
